Data as given in the supplement of paper PMC10849652.
The other results are listed elsewhere or left out.

Chains of the proteins cited; added tags and fusions are not shown. Lines headed by an entry give the natural chain unless they say otherwise; changes in a name come on top.
UniProt P20042, whole entry, looked up: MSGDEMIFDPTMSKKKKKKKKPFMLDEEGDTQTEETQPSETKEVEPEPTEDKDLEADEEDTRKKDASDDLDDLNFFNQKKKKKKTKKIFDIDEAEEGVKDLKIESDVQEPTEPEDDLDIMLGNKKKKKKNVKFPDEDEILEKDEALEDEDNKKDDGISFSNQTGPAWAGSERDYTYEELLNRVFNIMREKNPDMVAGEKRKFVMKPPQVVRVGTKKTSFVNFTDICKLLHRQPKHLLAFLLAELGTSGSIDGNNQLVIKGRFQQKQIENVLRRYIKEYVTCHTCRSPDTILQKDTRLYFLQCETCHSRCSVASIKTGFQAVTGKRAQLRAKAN
UniProt O60841: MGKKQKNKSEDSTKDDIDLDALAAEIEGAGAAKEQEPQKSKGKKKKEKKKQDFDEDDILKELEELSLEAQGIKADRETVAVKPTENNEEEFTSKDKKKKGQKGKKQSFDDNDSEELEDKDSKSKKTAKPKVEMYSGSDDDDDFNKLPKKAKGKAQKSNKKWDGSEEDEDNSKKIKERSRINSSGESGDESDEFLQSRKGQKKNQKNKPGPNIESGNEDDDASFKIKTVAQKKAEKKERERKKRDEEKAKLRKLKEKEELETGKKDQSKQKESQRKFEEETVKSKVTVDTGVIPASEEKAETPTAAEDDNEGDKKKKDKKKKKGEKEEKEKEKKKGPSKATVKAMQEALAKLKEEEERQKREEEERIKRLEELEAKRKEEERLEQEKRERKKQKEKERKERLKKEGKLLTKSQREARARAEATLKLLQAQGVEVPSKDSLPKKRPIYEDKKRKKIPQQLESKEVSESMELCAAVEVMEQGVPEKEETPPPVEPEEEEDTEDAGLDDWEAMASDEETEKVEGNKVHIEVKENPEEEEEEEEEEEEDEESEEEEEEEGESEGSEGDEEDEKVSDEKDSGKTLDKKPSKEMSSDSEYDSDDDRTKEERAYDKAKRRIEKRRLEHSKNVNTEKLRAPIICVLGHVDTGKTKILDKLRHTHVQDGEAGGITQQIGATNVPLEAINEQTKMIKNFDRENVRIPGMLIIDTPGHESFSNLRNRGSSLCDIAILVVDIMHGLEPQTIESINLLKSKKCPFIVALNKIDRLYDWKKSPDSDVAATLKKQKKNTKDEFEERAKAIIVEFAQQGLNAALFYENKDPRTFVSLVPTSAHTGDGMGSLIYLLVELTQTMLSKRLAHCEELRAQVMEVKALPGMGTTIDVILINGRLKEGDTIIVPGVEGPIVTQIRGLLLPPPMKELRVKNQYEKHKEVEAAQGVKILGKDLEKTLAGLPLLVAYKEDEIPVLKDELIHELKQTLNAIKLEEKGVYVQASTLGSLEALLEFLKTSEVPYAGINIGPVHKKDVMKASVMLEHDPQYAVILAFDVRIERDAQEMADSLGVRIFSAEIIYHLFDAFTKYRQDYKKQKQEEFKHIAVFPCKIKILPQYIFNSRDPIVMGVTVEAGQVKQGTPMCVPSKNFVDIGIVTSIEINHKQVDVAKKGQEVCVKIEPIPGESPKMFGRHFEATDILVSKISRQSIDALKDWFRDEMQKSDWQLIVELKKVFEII
UniProt P19525: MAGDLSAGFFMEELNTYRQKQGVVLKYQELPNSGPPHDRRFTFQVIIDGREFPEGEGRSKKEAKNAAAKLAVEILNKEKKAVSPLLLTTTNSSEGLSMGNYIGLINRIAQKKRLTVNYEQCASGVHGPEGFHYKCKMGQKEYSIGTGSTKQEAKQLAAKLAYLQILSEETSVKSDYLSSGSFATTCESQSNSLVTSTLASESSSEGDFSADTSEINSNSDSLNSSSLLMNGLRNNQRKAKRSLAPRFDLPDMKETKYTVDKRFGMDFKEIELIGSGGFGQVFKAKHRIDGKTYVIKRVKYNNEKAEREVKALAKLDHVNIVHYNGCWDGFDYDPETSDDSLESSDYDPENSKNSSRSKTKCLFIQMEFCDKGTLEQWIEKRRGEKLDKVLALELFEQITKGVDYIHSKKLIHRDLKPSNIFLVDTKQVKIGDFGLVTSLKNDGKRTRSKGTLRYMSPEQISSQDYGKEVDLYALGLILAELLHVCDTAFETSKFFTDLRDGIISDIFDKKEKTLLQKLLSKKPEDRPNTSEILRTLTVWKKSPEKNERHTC
UniProt P11171, whole entry, looked up: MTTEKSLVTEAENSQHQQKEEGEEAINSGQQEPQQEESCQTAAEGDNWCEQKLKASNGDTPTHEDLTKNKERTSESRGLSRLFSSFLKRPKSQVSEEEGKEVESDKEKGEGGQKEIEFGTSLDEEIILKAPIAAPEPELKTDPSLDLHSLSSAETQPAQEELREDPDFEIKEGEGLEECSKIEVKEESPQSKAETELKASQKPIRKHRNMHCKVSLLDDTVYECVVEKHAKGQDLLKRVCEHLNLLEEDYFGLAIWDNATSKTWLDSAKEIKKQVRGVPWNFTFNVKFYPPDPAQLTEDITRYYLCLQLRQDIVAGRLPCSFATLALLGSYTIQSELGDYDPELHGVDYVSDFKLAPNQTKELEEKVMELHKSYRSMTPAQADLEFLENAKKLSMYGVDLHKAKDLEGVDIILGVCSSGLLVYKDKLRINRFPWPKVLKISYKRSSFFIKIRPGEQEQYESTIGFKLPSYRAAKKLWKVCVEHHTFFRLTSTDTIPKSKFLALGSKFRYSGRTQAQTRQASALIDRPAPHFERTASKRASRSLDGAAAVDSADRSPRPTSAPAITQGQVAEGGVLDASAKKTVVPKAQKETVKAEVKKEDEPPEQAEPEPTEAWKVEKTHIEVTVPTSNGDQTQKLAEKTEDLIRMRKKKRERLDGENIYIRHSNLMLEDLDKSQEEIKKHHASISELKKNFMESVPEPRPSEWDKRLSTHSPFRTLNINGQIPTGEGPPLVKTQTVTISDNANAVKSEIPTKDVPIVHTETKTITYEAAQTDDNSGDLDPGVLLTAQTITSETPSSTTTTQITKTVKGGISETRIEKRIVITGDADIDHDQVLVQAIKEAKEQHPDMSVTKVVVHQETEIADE
UniProt O43402: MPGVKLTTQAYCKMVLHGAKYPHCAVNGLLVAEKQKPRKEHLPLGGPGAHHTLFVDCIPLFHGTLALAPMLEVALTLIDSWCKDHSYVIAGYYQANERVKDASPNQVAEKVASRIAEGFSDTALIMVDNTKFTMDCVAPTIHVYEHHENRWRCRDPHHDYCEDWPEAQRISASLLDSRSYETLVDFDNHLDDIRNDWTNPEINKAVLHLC
UniProt Q7L2H7, whole entry, looked up: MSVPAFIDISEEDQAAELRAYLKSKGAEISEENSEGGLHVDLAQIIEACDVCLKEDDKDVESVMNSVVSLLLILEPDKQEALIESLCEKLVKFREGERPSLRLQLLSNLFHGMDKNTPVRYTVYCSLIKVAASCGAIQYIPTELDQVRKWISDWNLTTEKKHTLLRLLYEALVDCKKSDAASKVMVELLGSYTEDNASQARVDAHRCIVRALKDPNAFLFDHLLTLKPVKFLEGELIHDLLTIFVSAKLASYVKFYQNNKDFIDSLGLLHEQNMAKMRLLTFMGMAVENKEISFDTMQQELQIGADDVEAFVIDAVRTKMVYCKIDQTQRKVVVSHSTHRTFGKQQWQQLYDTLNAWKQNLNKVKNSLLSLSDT
UniProt P05198, whole entry, looked up: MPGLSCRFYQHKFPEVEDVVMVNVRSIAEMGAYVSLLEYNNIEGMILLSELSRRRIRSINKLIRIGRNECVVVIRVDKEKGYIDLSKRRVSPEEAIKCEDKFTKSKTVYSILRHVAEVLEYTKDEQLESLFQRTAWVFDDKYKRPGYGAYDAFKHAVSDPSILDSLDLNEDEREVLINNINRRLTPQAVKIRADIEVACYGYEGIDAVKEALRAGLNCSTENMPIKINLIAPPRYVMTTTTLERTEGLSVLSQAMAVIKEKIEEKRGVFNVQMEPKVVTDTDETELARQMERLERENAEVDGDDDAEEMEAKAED
UniProt Q03468, whole entry, looked up: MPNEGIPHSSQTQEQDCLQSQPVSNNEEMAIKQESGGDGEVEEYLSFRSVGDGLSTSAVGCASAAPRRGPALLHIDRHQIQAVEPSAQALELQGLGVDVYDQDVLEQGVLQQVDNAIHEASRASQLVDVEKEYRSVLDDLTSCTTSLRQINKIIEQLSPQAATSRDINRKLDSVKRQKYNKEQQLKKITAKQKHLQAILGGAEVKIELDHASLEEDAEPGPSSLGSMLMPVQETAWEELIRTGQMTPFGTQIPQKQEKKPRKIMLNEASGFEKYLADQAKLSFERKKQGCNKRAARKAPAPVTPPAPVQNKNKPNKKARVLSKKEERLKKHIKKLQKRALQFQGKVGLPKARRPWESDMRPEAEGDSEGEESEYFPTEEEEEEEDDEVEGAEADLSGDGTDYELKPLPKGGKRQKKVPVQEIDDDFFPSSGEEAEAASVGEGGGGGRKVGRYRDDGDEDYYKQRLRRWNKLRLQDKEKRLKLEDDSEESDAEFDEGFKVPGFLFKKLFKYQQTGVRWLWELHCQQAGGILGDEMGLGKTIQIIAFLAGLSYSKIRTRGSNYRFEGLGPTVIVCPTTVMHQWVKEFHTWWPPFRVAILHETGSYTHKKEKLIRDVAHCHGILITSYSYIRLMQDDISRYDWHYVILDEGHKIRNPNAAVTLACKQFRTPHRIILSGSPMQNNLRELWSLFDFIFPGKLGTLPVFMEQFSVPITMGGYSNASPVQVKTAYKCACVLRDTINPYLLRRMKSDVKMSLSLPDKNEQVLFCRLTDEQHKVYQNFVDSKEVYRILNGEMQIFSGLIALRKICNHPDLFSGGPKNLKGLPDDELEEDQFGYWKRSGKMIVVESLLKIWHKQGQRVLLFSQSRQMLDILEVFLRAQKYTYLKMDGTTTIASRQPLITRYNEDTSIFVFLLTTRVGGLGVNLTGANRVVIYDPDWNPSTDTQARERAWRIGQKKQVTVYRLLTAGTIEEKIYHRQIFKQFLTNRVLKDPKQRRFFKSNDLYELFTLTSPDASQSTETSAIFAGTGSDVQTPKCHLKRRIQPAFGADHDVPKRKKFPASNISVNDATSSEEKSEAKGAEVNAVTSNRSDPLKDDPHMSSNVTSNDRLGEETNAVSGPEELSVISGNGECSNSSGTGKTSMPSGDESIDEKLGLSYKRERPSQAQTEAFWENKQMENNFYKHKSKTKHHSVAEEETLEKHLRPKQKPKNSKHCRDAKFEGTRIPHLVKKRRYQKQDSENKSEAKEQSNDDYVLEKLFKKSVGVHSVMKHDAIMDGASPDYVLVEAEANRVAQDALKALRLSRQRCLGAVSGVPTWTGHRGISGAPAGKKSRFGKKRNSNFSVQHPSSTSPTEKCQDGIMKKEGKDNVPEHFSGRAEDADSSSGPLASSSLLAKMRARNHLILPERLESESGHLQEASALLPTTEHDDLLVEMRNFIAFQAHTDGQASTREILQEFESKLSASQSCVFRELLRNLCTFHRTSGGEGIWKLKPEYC
UniProt P60228, whole entry, looked up: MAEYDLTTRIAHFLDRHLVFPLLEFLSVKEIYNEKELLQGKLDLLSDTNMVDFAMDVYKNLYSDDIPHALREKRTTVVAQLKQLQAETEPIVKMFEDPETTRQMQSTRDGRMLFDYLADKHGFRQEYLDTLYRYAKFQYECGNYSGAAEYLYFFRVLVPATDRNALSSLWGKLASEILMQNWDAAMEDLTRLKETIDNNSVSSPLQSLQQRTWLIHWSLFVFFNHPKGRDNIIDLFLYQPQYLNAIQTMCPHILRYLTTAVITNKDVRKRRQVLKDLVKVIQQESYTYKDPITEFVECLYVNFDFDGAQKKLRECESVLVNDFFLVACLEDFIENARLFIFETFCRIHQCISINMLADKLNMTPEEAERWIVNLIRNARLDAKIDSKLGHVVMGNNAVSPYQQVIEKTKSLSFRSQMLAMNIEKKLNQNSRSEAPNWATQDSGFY
UniProt P32519: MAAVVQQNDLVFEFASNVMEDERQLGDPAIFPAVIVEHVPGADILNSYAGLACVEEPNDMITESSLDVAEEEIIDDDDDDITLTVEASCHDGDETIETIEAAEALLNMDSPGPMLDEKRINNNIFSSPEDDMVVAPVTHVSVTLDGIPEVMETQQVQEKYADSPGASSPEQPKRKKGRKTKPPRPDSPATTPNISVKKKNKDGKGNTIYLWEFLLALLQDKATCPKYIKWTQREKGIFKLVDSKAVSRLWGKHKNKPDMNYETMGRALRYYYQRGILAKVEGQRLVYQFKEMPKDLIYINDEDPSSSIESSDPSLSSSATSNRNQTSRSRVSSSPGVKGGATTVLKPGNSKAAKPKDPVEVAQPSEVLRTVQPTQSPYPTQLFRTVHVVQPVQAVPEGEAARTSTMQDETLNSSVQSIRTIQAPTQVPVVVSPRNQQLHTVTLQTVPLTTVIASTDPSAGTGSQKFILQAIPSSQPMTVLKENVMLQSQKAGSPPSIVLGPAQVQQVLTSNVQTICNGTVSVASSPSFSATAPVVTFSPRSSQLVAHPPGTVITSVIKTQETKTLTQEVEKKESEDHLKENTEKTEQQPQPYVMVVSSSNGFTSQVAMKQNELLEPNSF

Experiments:
Assay in all cases: log2 fold change, soluble protein after heating vs DMSO (PISA); higher = thermal stabilisation; K562 lysate, 10 uM; active = over 0.2 and 3.5 SD of the protein, either way, in both replicates (recomputed)
vemurafenib = compound: CCCS(=O)(=O)Nc1ccc(F)c(C(=O)c2c[nH]c3ncc(-c4ccc(Cl)cc4)cc23)c1F [vemurafenib]
Summary of the method: (§1)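 Soluble protein was defined as the supernatant remaining after 21,000xg for 90 min, following pooling of heated aliquots and adjustment to 0.5% NP-40 at 4°C. Before that, crude K562 extract at 1 mg/mL protein in PBS pH 7.4 with 1 mM MgCl2 was treated with 10 μM compound for 30 min and heated for 3 min across 48°C-58°C. Quantification used TMTpro 16plex LC-MS/MS with channel sums equalised, and values are log-two fold changes in thermal stability relative to solvent controls from duplicates.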

[1] = compound: CCCS(=O)(=O)Nc1ccc(F)c(C(=O)c2c[nH]c3ncc(Cl)cc23)c1F
Summary of the method: as §1

barasertib = compound: CCN(CCCOc1ccc2c(Nc3cc(CC(=O)Nc4cccc(F)c4)[nH]n3)ncnc2c1)CCOP(=O)(O)O [barasertib]
Summary of the method: as §1

[2] = compound: CC[C@@H]1C(=O)N(C)c2cnc(Nc3ccc(C(=O)NC4CCN(C)CC4)cc3OC)nc2N1C1CCCC1
Summary of the method: as §1

volasertib = compound: CC[C@@H]1C(=O)N(C)c2cnc(Nc3ccc(C(=O)N[C@H]4CC[C@H](N5CCN(CC6CC6)CC5)CC4)cc3OC)nc2N1C(C)C [volasertib]
Summary of the method: as §1

[3] = compound: CCn1c(C(=O)N(C2CC2)C2CC2)cc2c3c(ncn3C)c(Nc3cc(C)n(C)n3)nc21
Summary of the method: as §1

[4] = compound: CCn1cc(-c2ccnc3[nH]c(-c4cccc(CN(C)C)c4)cc23)c(-c2ccc(NC(=O)N(C)C)cc2)n1
Summary of the method: as §1

[5] = compound: CN1CCC(CNc2ccc3ncc(-c4cccc(OC(F)(F)F)c4)n3n2)CC1
Summary of the method: as §1

saracatinib = compound: CN1CCN(CCOc2cc(OC3CCOCC3)c3c(Nc4c(Cl)ccc5c4OCO5)ncnc3c2)CC1 [saracatinib]
Summary of the method: as §1

sotrastaurin = compound: CN1CCN(c2nc(C3=C(c4c[nH]c5ccccc45)C(=O)NC3=O)c3ccccc3n2)CC1 [sotrastaurin]
Summary of the method: as §1

alvocidib = compound: CN1CC[C@H](c2c(O)cc(O)c3c(=O)cc(-c4ccccc4Cl)oc23)[C@H](O)C1 [alvocidib]
Summary of the method: as §1

Tubastatin A = compound: CN1CCc2c(c3ccccc3n2Cc2ccc(C(=O)NO)cc2)C1 [Tubastatin A]
Summary of the method: as §1

[6] = compound: CNC(=O)C1=CC=CC=C1NC2=NC(=NC=C2Cl)NC3=C(C=C(C=C3)N4CCOCC4)OC
Summary of the method: as §1

defactinib = compound: CNC(=O)c1ccc(Nc2ncc(C(F)(F)F)c(NCc3nccnc3N(C)S(C)(=O)=O)n2)cc1 [defactinib]
Summary of the method: as §1

[7] = compound: CNc1nc(-c2ccc3c(N)n[nH]c3c2)cc(N2C[C@@H](C(=O)NC3CCCCC3)CC[C@H]2C)n1
Summary of the method: as §1

encorafenib = compound: COC(=O)N[C@@H](C)CNc1nccc(-c2cn(C(C)C)nc2-c2cc(Cl)cc(NS(C)(=O)=O)c2F)n1 [encorafenib]
Summary of the method: as §1

[8] = compound: COC(=O)[C@H](CCSC)NC(=O)C1=C(C=C(C=C1)NC[C@H](CS)N)C2=CC=CC=C2
Summary of the method: as §1

alisertib = compound: COc1cc(Nc2ncc3c(n2)-c2ccc(Cl)cc2C(c2c(F)cccc2OC)=NC3)ccc1C(=O)O [alisertib]
Summary of the method: as §1

[9] = compound: COc1cc2nc(-c3cc(F)ccc3O)nc(N[C@@H]3CNC[C@H]3C(C)(C)O)c2cc1OC
Summary of the method: as §1

gefitinib = compound: COc1cc2ncnc(Nc3ccc(F)c(Cl)c3)c2cc1OCCCN1CCOCC1 [gefitinib]
Summary of the method: as §1

Measured: log2 fold change

EIF2S2 (UniProt P20042)
inactive: vemurafenib 0.01 | [1] -0.018 | barasertib -0.024 | [2] 0.039 | volasertib 0.012 | [3] -0.023 | [4] 0.13 | [5] -0.038 | saracatinib -0.011 | sotrastaurin -0.008 | alvocidib -0.011 | Tubastatin A 0.058 | [6] -0.001 | defactinib -0.038 | [7] 0.013 | encorafenib -0.027 | [8] -0.045 | alisertib -0.001 | [9] 0.006 | gefitinib -0.016

ELMOD2 (UniProt Q8IZ81)
inactive: vemurafenib 0.011 | [1] 0.003 | barasertib 0.007 | [2] 0.061 | volasertib -0.037 | [3] 0.015 | [4] 0.071 | [5] -0.05 | saracatinib 0.023 | sotrastaurin 0.034 | alvocidib 0.044 | Tubastatin A -0.022 | [6] -0.012 | defactinib 0.039 | [7] -0.052 | encorafenib 0 | [8] -0.042 | alisertib -0.047 | [9] 0.035 | gefitinib 0.014

EIF5B (UniProt O60841)
inactive: vemurafenib 0.001 | [1] 0.006 | barasertib -0.035 | [2] 0.016 | volasertib -0.003 | [3] -0.014 | [4] 0.013 | [5] -0.015 | saracatinib 0.008 | sotrastaurin -0.011 | alvocidib 0.003 | Tubastatin A 0.007 | [6] -0.017 | defactinib -0.017 | [7] -0.001 | encorafenib -0.016 | [8] 0.031 | alisertib -0.003 | [9] 0.004 | gefitinib -0.027

EIF2AK2 (UniProt P19525)
inactive: vemurafenib 0.025 | [1] 0.012 | barasertib -0.038 | [2] -0.09 | volasertib -0.03 | [3] -0.008 | [4] -0.081 | [5] 0.067 | saracatinib -0.011 | sotrastaurin 0.007 | alvocidib 0.004 | Tubastatin A -0.099 | [6] 0.091 | defactinib 0.049 | [7] 0.083 | encorafenib 0.087 | [8] 0.153 | alisertib 0.003 | [9] 0.029 | gefitinib -0.055

EPB41 (UniProt P11171)
inactive: vemurafenib -0.051 | [1] 0.005 | barasertib -0.009 | [2] -0.033 | volasertib -0.02 | [3] 0.022 | [4] 0.026 | [5] -0.135 | saracatinib 0.014 | sotrastaurin 0.026 | alvocidib 0.044 | Tubastatin A -0.02 | [6] 0.011 | defactinib 0.015 | [7] -0.067 | encorafenib 0.01 | [8] -0.001 | alisertib 0.02 | [9] -0.036 | gefitinib 0.007

ERCC2 (UniProt P18074)
inactive: vemurafenib -0.01 | [1] 0.001 | barasertib 0.089 | [2] -0.077 | volasertib -0.043 | [3] 0 | [4] 0.06 | [5] -0.067 | saracatinib 0 | sotrastaurin 0.06 | alvocidib 0.048 | Tubastatin A -0.044 | [6] -0.018 | defactinib 0.007 | [7] -0.026 | encorafenib 0.04 | [8] 0.087 | alisertib 0.023 | [9] -0.001 | gefitinib -0.002

EMC8 (UniProt O43402)
inactive: vemurafenib 0.054 | [1] -0.014 | barasertib -0.002 | [2] 0.025 | volasertib -0.011 | [3] 0.018 | [4] 0.19 | [5] -0.022 | saracatinib 0.009 | sotrastaurin -0.022 | alvocidib -0.015 | Tubastatin A 0.009 | [6] -0.018 | defactinib -0.029 | [7] -0.063 | encorafenib 0.013 | [8] -0.025 | alisertib -0.036 | [9] 0.009 | gefitinib 0.004

EIF3M (UniProt Q7L2H7)
inactive: vemurafenib -0.011 | [1] 0.015 | barasertib 0.012 | [2] -0.046 | volasertib -0.013 | [3] -0.003 | [4] 0.151 | [5] -0.018 | saracatinib 0 | sotrastaurin -0.01 | alvocidib 0.07 | Tubastatin A -0.02 | [6] -0.003 | defactinib 0 | [7] 0.029 | encorafenib 0.001 | [8] 0 | alisertib 0.015 | [9] 0.001 | gefitinib -0.044

ELOVL6 (UniProt Q9H5J4)
inactive: vemurafenib -0.322 | [1] 0.032 | volasertib -0.165 | [4] -0.307 | [5] 0.105 | saracatinib 0.056 | sotrastaurin -0.003 | alvocidib -0.111 | [6] -0.44 | defactinib 0.243 | [7] -0.153 | alisertib -0.039 | [9] -0.153 | gefitinib -0.133

EME1 isoform 2 (UniProt Q96AY2)
inactive: vemurafenib -0.077 | barasertib -0.023 | [2] 0.104 | [3] -0.006 | [4] -0.007 | [5] -0.012 | sotrastaurin 0.028 | alvocidib -0.04 | Tubastatin A -0.072 | defactinib -0.031 | encorafenib 0.04 | [8] 0.096

EPS15L1 (UniProt M0QY01)
inactive: vemurafenib 0.062 | [1] 0 | [2] -0.046 | volasertib -0.019 | [4] -0.035 | [5] 0.049 | saracatinib 0.14 | alvocidib -0.011 | [6] 0.037 | defactinib 0.04 | [7] 0.079 | encorafenib -0.004 | [8] -0.021 | [9] 0.026

Two records drawn at random from the list so far, as already listed:
EIF3M (UniProt Q7L2H7)
inactive: vemurafenib -0.011 | [1] 0.015 | barasertib 0.012 | [2] -0.046 | volasertib -0.013 | [3] -0.003 | [4] 0.151 | [5] -0.018 | saracatinib 0 | sotrastaurin -0.01 | alvocidib 0.07 | Tubastatin A -0.02 | [6] -0.003 | defactinib 0 | [7] 0.029 | encorafenib 0.001 | [8] 0 | alisertib 0.015 | [9] 0.001 | gefitinib -0.044

EME1 isoform 2 (UniProt Q96AY2)
inactive: vemurafenib -0.077 | barasertib -0.023 | [2] 0.104 | [3] -0.006 | [4] -0.007 | [5] -0.012 | sotrastaurin 0.028 | alvocidib -0.04 | Tubastatin A -0.072 | defactinib -0.031 | encorafenib 0.04 | [8] 0.096

Following part.

EIF2S1 (UniProt P05198)
inactive: vemurafenib 0.005 | [1] -0.026 | barasertib -0.036 | [2] 0.009 | volasertib 0.018 | [3] 0.001 | [4] -0.038 | [5] 0.02 | saracatinib -0.016 | sotrastaurin -0.009 | alvocidib -0.027 | Tubastatin A 0.057 | [6] -0.012 | defactinib -0.019 | [7] -0.004 | encorafenib -0.017 | [8] -0.008 | alisertib -0.013 | [9] 0.001 | gefitinib -0.011

ERCC6 (UniProt Q03468)
inactive: vemurafenib 0.177 | [1] 0.077 | barasertib -0.112 | [2] 0.081 | volasertib 0.006 | [3] 0.002 | [4] -0.1 | [5] 0.026 | saracatinib -0.124 | alvocidib -0.09 | Tubastatin A 0.031 | [6] -0.017 | defactinib -0.04 | [7] 0.134 | encorafenib -0.111 | [8] -0.064 | alisertib -0.178 | [9] -0.006 | gefitinib 0.246

EIF3E (UniProt P60228)
inactive: vemurafenib -0.005 | [1] 0.015 | barasertib 0.054 | [2] -0.119 | volasertib -0.081 | [3] 0.052 | [4] -0.066 | [5] 0.024 | saracatinib 0.034 | sotrastaurin 0.067 | alvocidib 0.033 | Tubastatin A -0.075 | [6] 0.05 | defactinib -0.008 | [7] -0.035 | encorafenib -0.036 | [8] 0.103 | alisertib 0.029 | [9] -0.024 | gefitinib 0.014

ELF1 (UniProt P32519)
inactive: vemurafenib 0.022 | [1] 0.019 | barasertib 0.02 | [2] -0.019 | volasertib -0.043 | [3] -0.073 | [4] 0.071 | [5] -0.097 | saracatinib -0.015 | sotrastaurin 0.019 | alvocidib 0.11 | Tubastatin A -0.047 | [6] -0.022 | defactinib -0.021 | [7] 0.055 | encorafenib 0.013 | [8] -0.045 | alisertib 0.015 | [9] -0.039 | gefitinib -0.07

EPS8L1 (UniProt Q8TE68)
inactive: vemurafenib -0.01 | barasertib 0.102 | [2] -0.073 | [3] 0.038 | [4] 0.068 | [5] -0.11 | saracatinib 0.017 | sotrastaurin -0.117 | alvocidib 0.009 | Tubastatin A -0.26 | defactinib -0.028 | [7] -0.041 | encorafenib 0.02 | [8] -0.055
